Reference: PubChem BioAssay AID493014 (National Center for Advancing Translational Sciences (NCATS), 2011)
In all, about 340,000 compounds went through this assay and about 170 (0.05%) were called active. The shares of active, inactive and inconclusive entries below differ from those in the screen. Calls come from the whole dose curve; as a rule, active = well fitted inhibition curve with a large enough effect in the signal ratio, with a control signal flat (not every such curve was filed as active); inconclusive = small, poorly fitted or top-dose-only effect, or effect the other way, or a change in a side signal; inactive = flat fitted curve, though single readings scatter; the % refers to the signal ratio. Where the call is inconclusive, the potency comes from a doubtful curve fit.

Assay: qHTS Assay to Find Inhibitors of Chronic Active B-Cell Receptor Signaling;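 for activity change, negative = inhibition: plate controls were basal doxycycline-induced cells for no effect and cells given 10 µM MG132 for full effect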
Details: ABC-DLBCL IkBa-CBG/CBR reporter, luminescence ratio (green luciferase fused to IkBa over red control in TMD8 lymphoma cells), 4 h; activity change, negative = inhibition: at 46.1 µM (top of the series) unless noted
How it was run: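 TMD8 human ABC-DLBCL cells with doxycycline-inducible IκBα–green luciferase fusion and unfused red luciferase, in 0.5% FBS medium; compounds up to 46 uM, 4 h at 37C. Green/red luminescence ratio, filter-overlap corrected, fitted to concentration-response curves.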
Potency is the fitted concentration of half-maximal effect.

Row | Structure (SMILES) | activity change, negative = inhibition | Potency
1 | CCC(C)N1CC(O)=C(c2nc3ccccc3[nH]2)C1=N (stereo not drawn) | inconclusive: 5.38% | –
2 | NS(=O)(=O)c1ccc(N2N=C(c3ccccc3)CC2c2cccc(Cl)c2)cc1 (stereo not drawn) | inconclusive: 3% | –
3 | CCC(CC)Nc1ccc(C(CC(N)=O)NC(=O)c2ccccc2)cc1[N+](=O)[O-] (stereo not drawn) | inconclusive: 7.46% | –
4 | O=C(NCc1cccnc1)C(=O)NCC1OCCN1S(=O)(=O)c1cc(F)ccc1F (stereo not drawn) | inconclusive: -2.67% | –
5 | CC1=CC(=O)N(c2cccc(C(F)(F)F)c2)C1c1ccc(Cl)cc1 (stereo not drawn) | – | inconclusive: 35.5 µM [rising, single point]
6 | CCCCN1CC(COCc2ccccc2)Oc2ccccc2S1(=O)=O (stereo not drawn) | inactive: -0.161% | –
7 | Cc1sc2nc(C(C)C)nc(SCC(=O)N3CCN(C(=O)c4ccco4)CC3)c2c1C | inactive: -1.78% | –
8 | COCc1[nH]nc2c1C(c1cc(OC)c(O)c(OC)c1)C(C#N)=C(N)O2 (stereo not drawn) | inconclusive: -0.205% | –
9 | Cn1c(SCC(=O)c2ccccc2)nnc1-c1cnccn1 | – | inconclusive: 25.1 µM [falling, single point]
10 | Cc1cc(C)cc(NC(=S)/N=C(\N)Nc2nc(C)c3ccccc3n2)c1 | inconclusive: -5.45% | –
11 | Cc1nc2c(-c3ccc(F)cc3)cnn2c2c1CCC2 | inconclusive: 6.55% | –
12 | CCC1S/C(=N/N=C/c2ccco2)N(Cc2ccccc2)C1=O (stereo not drawn) | inactive: 20.9% | –
13 | CCc1cc(Br)ccc1NC(=S)NCCc1ccccc1 | – | inconclusive: 35.5 µM [falling, single point]
14 | C=CCn1c(=S)sc2c(=O)[nH]cnc21 | inactive: 1.78% | –
15 | Cc1ccc(/C=C2\CCC(C3CCCC3)C2=O)cc1 (stereo not drawn) | inconclusive: 11.2% | –
16 | COC(=O)c1sccc1NC(=S)N1C(C)CCCC1C (stereo not drawn) | inactive: -12.1% | –
17 | O=C(O)C1Cc2ccccc2CN1S(=O)(=O)c1ccccc1 (stereo not drawn) | inconclusive: 16.9% | –
18 | CCOC(=O)CSc1cc(C)nc(N)n1 | inconclusive: -10.1% | –
19 | COc1ccc(OC)c2sc(NC(=O)C3=COCCO3)nc12 | inconclusive: 18.5% | –
20 | CS(=O)(=O)O/N=C1\CCCCC1c1ccc([N+](=O)[O-])cc1[N+](=O)[O-] (stereo not drawn) | inconclusive: 0.763% | –
21 | CCCCNC(=O)CSc1nnc(-c2c[nH]c3ccccc23)n1CC1CCCO1 (stereo not drawn) | inconclusive: 6.97% | –

Ordered by SMILES length (smallest number first): some entries from above
Row | Structure (SMILES) | activity change, negative = inhibition | Potency
19 | COc1ccc(OC)c2sc(NC(=O)C3=COCCO3)nc12 | inconclusive: 18.5% | –
21 | CCCCNC(=O)CSc1nnc(-c2c[nH]c3ccccc23)n1CC1CCCO1 (stereo not drawn) | inconclusive: 6.97% | –
3 | CCC(CC)Nc1ccc(C(CC(N)=O)NC(=O)c2ccccc2)cc1[N+](=O)[O-] (stereo not drawn) | inconclusive: 7.46% | –

Continued:

Row | Structure (SMILES) | activity change, negative = inhibition | Potency
22 | Cc1ccc(NC(=S)/N=C(\N)Nc2nc(C)c3cc(C)ccc3n2)c(C)c1 | – | inconclusive: 23.1 µM [falling, partial curve, poor fit]
23 | Cc1nn(-c2ccccc2)c(OC(=O)c2cccs2)c1S(=O)(=O)c1ccc([N+](=O)[O-])cc1 | – | inconclusive: 0.0326 µM [rising, full curve, poor fit]
24 | Nc1nc2c(s1)CCCCCCCCCC2 | inactive: 10% | –
25 | CCOc1cc(/C=C(/NC(C)=O)C(=O)O)cc(Cl)c1OCc1cccc(Br)c1 | inconclusive: 11.3% | –
26 | CCOC(=O)CN1C=C(c2ccc3ccccc3n2)C(C[N+](=O)[O-])c2ccccc21 (stereo not drawn) | inconclusive: 1.11% | –
27 | CCOC(=O)COc1c(OC)cc(Cl)cc1C1Nc2ccccc2C(=O)N1c1cccc(C)c1 (stereo not drawn) | inconclusive: 19.2% | –
28 | C=CCn1c(SCC(=O)Nc2ccc(Cl)cn2)nnc1C1CC1 | – | inconclusive: 25.1 µM [falling, single point]
29 | COc1ccccc1C1CCN(Cc2cccc(C(=O)N3CCC(O)CC3)c2)CC1 | inactive: 3.06% | –
30 | CCOC(=O)c1c(C)n(C)c2ccc(OC(=O)c3ccc([N+](=O)[O-])cc3)cc12 | inconclusive: -15.2% | –
31 | Brc1cccc(CNCc2cccs2)c1 | inconclusive: 3.77% | –
32 | O=c1nc(N2CCCC2)nc(N2CCCC2)[nH]1 | inactive: 1.67% | –
33 | COc1ccc(OCCC(=O)OCC(=O)Nc2ccc(Br)cc2)cc1 | inconclusive: -16.8% | –
34 | COc1ccc(-c2nc(C)c(C(C)=O)n2O)cc1[N+](=O)[O-] | – | inconclusive: 25.1 µM [falling, single point]
35 | COc1ccc2c(c1)OC[C@H]1[C@H]2N2C(=O)c3cc(Br)ccc3NC(=O)[C@@]2(C)[C@H]1c1ccccc1 | inconclusive: 12.2% | –
36 | COc1ccc(C)cc1NC(=O)CSc1nnc(-c2ccccn2)n1Cc1ccco1 | inconclusive: 5.35% | –
37 | Cc1ccc(C)c(NC(=O)CCC(=O)N/N=C/c2cc([N+](=O)[O-])ccc2O)c1 | – | inconclusive: 3.98 µM [rising, partial curve, poor fit]
38 | O=C(Nc1ccc(S(=O)(=O)Nc2ccccc2)cc1)C1COc2ccccc2O1 (stereo not drawn) | inactive: 23.4% | –
39 | Nc1ccccc1Nc1nc2ccccc2[nH]1 | inconclusive: 0.7% | –
40 | O=C(/C=C/c1ccc(F)cc1)NC(=S)NNC(=O)[C@H]1C[C@@H]1c1ccccc1 | inactive: -1.99% | –
41 | O=C(CC1COc2ccccc2O1)Nc1ccccn1 (stereo not drawn) | inconclusive: -19.4% | –
42 | C=CCN1C2CCCC1CC(NC(=O)Nc1cccc(C(C)=O)c1)C2 (stereo not drawn) | inactive: -6.74% | –

Row | Structure (SMILES) | activity change, negative = inhibition | Potency
43 | Cc1cc(Nc2ccccc2)nc(-c2ccccc2O)n1 | inconclusive: 18.2% | –
44 | CCCOc1c(OC)cccc1C1CC(=O)Nc2cc(OC)c(OC)c(OC)c21 (stereo not drawn) | – | inconclusive: 10 µM [falling, partial curve, poor fit]
45 | O=C(N=Nc1c(O)[nH]c2ccc(F)cc12)C1COc2ccccc2O1 (stereo not drawn) | inconclusive: 0.247% | –
46 | Cc1ccc(OCC(=O)NNC(=O)Cc2ccc(S(=O)(=O)N3CCOCC3)s2)cc1 | – | inconclusive: 16.4 µM [rising, partial curve, poor fit]
47 | CCc1ccc(NCCC(=O)c2ccc(Br)cc2)cc1 | inconclusive: 5.84% | –
48 | CCc1ccc(NC(=O)NCCN2CCN(c3ccc(OC)cc3)CC2)cc1 | inactive: -0.483% | –
49 | CCN1CCN(C(=S)c2ccc(Br)cc2)CC1 | – | inconclusive: 3.55 µM [falling, single point]
50 | O=C(NC1CCCCC1)C(c1cccnc1)N(C(=O)c1csnn1)c1ccccc1 (stereo not drawn) | inactive: 1.48% | –
51 | CCCC(=O)N(CCc1ccccc1)Cc1nc2ccccc2c(=O)[nH]1 | inconclusive: 0.617% | –
52 | COc1ccc(OC)c(NC(=O)C(=O)N/N=C/c2ccccc2[N+](=O)[O-])c1 | – | inconclusive: 4.47 µM [falling, single point]
53 | O=C(C1CCCN(Cc2ccccc2)C1)N1CCCCC1 (stereo not drawn) | inactive: 15.8% | –
54 | CCOC(=O)C1=C(O)/C(=C/c2cc(OC)c(OC)c(OC)c2)SC1=Nc1ccc(OC)cc1 | – | inconclusive: 2.51 µM [falling, full curve, poor fit]
55 | Cc1ccc(N(CC2CO2)S(=O)(=O)c2ccc(C)cc2)cc1 (stereo not drawn) | – | inconclusive: 35.5 µM [falling, single point]
56 | Cc1ccc(CN=c2c([N+](=O)[O-])nn(-c3ccc4c(c3)OCCO4)n2O)cc1 | inconclusive: 8.24% | –
57 | COC(=O)c1c(NC(=O)C(=O)N2CCOCC2)sc2c1CCCC2 | inactive: 0.14% | –
58 | CCC(Sc1nc2cc(OC)c(OC)cc2c(=O)n1CCc1ccc(OC)c(OC)c1)C(=O)NCCOC (stereo not drawn) | inactive: -14.5% | –
59 | COc1cc(CNCc2cccnc2)ccc1OCC(=O)NC(C)(C)C | inconclusive: 4.16% | –
60 | Cc1ccccc1CSc1nnc(NC(=O)Cc2cccs2)s1 | inconclusive: 6.7% | –
61 | COc1ccc2nc(N3C(=O)/C(=C/c4ccccc4)NC3=S)sc2c1 | inactive: 4.05% | –
62 | CCCN(CCC)C(=O)Cn1c(=O)n(-c2cccc(OC)c2)c(=O)c2c(C)c(C(=O)N(C)C)sc21 | inactive: -14.7% | –
63 | COc1cccc(C(=O)N/N=C/c2ccc(OC3CSC3)cc2)c1 | – | inconclusive: 0.291 µM [falling, full curve, poor fit]

Row | Structure (SMILES) | activity change, negative = inhibition | Potency
64 | Cc1ccc(S(=O)(=O)N2CCCCC2C(=O)O)cc1 (stereo not drawn) | inconclusive: 0.0151% | –
65 | O=C(O)c1ccc(CSc2ncnc3c2cnn3Cc2ccccc2)cc1 | – | inconclusive: 35.5 µM [rising, single point]
66 | NS(=O)(=O)OCCCc1ccc(C(F)(F)F)cc1 | inconclusive: -19.2% | –
67 | O=C(Cn1c(=O)c2c(ncn2C2CCCC2)n(Cc2ccccc2)c1=O)N1CCc2ccccc21 | – | inconclusive: 16.4 µM [falling, partial curve]
68 | CCCc1cc(C(=O)Nc2cccc(C(C)=O)c2)no1 | inconclusive: 0.984% | –
69 | Cc1cccc(Nc2nc(-c3cccs3)cs2)n1 | – | inconclusive: 5.17 µM [falling, partial curve, poor fit]
70 | CC(C)Oc1ccc(C(=O)NCc2cccs2)cc1 | inactive: -49.7% | –
71 | Nc1nc(N)c2[nH]c(-c3ccccc3)nc2n1 | inconclusive: -20.8% | –
72 | Cc1cc2oc(=O)cc(CN3CCN(C/C=C/c4ccccc4)CC3)c2cc1O | – | inconclusive: 14.1 µM [falling, partial curve, poor fit]
73 | O=C(CSc1ncn[nH]1)N/N=C/c1ccc(Br)cc1 | – | inconclusive: 25.1 µM [falling, single point]
74 | CC(C)c1ccc(NC(=S)NC2CC3C=CC2C3)cc1 (stereo not drawn) | inconclusive: 9.93% | –
75 | CCOC(=O)N1CCN(Cc2nc(Cc3cccc(C(F)(F)F)c3)no2)CC1 | inconclusive: 9.03% | –
76 | Cc1cc(C)n2c(C)nnc2c1 | inconclusive: -4.2% | –
77 | CCn1c(=O)cc(SCC(=O)Nc2cccc(C)n2)c2ccccc21 | inactive: -13.8% | –
78 | N/C(=N\OC(=O)COc1ccc2ccccc2c1)c1ccncc1 | inconclusive: 25% | –
79 | O=C(OCCOc1cccc(Cl)c1)C1CCN(S(=O)(=O)c2ccccc2)CC1 | inactive: 1.62% | –
80 | S=C(NCCc1ccccc1)Nc1ccc(N2CCCCC2)cc1 | inactive: 7.37% | –
81 | Cc1nnsc1C(=O)NNC(=O)c1ccc(C(F)(F)F)cc1 | – | inconclusive: 35.5 µM [falling, single point]
82 | CS(=O)(=O)C1=C(O)C(=O)N(c2ccccc2)C1c1ccccc1 (stereo not drawn) | inconclusive: 10.8% | –
83 | CC(=O)Nc1nc(-c2ccc3c(c2)CC(C)N3C(=O)C2CC2)c(C)s1 (stereo not drawn) | inactive: 0.136% | –
